In patent US6964766B1, “Peptides for use in immunotherapy of autoimmune diseases” (Akzo Nobel N.V., priority 1998, dated 2005):
Values joined by “and” are separate entries in the source; they are usually repeats but may differ in a detail not shown here. Identical values can stand only once. At least one peptide structure holds a part that was inferred or is arguable (an end, a ring closure or a residue). No end group written: not given here.

Assays:
[1] = target: T1, HLA-DRB1*0401-encoded molecules (Homo sapiens, UniProt P01903+P01911, A100K/A169T/F76Y/I96L/K127E/L162R/M171V/N62H/P40V/Q125Y/R42H/S133A/S149N/S66Y/V115G/V209L/W38E); test: competition peptide HLA-DR binding assay
T1 construct: HLA-DR4 (DRB1*0401) molecules were purified from the homozygous EBV-transformed human B lymphoblastoid cell lines Huly138IC2; endogenous in cells; host or cells: homozygous EBV-transformed human B lymphoblastoid cell line Huly138IC2

PBMC from RA patients = test: recognition by PBMC ([3H]thymidine incorporation, stimulation index); format: cell-based, human; conditions: Table 3b, per donor (169, 455, 447, 327)
Method: Peripheral blood mononuclear cells (PBMC) were isolated from heparinized peripheral blood by standard centrifugation on Ficoll-Paque (Pharmacia, Uppsala, Sweden). Cells were suspended in wells of a 24 well plate in a concentration of 5×10^5 cells per ml. Cells were incubated in medium alone or in the presence of 10 or 50 μg/ml peptide antigen (YKL-39 (266-278)). Cultures were incubated for 6 days at 37° C. in a humidified atmosphere of 5% CO2. Cells were then suspended and 100 or 150 μl volumes of medium was distributed in 4-fold in wells of a 96-well roundbottomed plate. Cells were then pulsed with 0.5 μCi (1.85×10^4 Bq) [3H]thymidine ([3H]TdR) and 18 hr later incorporated radioactivity was measured. Results as shown in table 3 are expressed as stimulation indices (SI) (antigen-specific counts/background counts).

[2] = tested on: HC gp-39 (263-275) induced DTH response; test: HC gp-39 (263-275)-specific DTH assay, tolerance induction by nasal application; format: in vivo, Balb/c mice; conditions: intranasal pretreatment 50, 10 or 2 micrograms; sensibilisation and challenge with HC gp-39 (263-275)
Source text: FIG. 2a, 2b, 2c In vivo tolerization with HC gp-39 (263-275) or YKL-39 ([…]) • Balb/c mice were tolerized by intranasal application of 50, 10 or 2 micrograms of HC gp-39 (263-275), SEQ ID NO: 3, (FIG. 2b) or YKL-39 (266-278) (FIG. 2c) followed by immunization with HC gp-39 (263-275). Mice that were pretreated with saline or that were left untreated were included as controls (FIG. 2a).
A HC gp-39 (263-275)-specific DTH assay suitable to monitor tolerance induction with peptide antigens was developed. […] This peptide-based DTH system was used to detect modulation of the DTH response by nasal application of HC gp-39 (263-275) peptide.

Sequence	binding affinity to DRB1*0401 (in words) [1]	SI 10 μg/ml (PBMC from RA patients; 10 μg/ml antigen)	SI 50 μg/ml (PBMC from RA patients; 50 μg/ml antigen)	tolerance [2]
RSFTLASSSDTRVG [Chi (269-282), RSFTLASSSDTRVG, reference compound]	high affinity			
RSFTLASSETGVG [HC gp-39 (263-275), RSFTLASSETGVG, reference compound]		1 (2×) and 3 and 10	1 and 5 and 27 and 15	yes
